Data published in patent US20210332126A1.
Where a chain is given by its changes, count along the chain named. Results are given in words; binding and its absence hold for the method and conditions named. Some entries that bind do so weakly or less than the wild type.

By UniProt entry, the sequences of proteins in these tests, tags left out. Where a name states a change or a piece, a line headed by the entry shows the natural chain unless it says otherwise.
UniProt P05231: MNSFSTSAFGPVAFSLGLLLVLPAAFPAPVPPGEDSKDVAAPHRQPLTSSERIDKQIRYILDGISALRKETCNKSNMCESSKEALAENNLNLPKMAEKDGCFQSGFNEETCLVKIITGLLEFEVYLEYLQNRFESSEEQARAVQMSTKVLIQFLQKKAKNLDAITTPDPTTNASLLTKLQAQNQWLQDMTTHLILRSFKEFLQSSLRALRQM

B1: Ab3 (antibody, V domains shown)
VH: QSLEESGGRLVTPGTPLTLTCTASGFSLSVYYMNWVRQAPGKGLEWIGFITMSDNINYASWAKGRFTISKTSTTVDLKMTSPTTEDTATYFCARSRGWGTMGRLDLWGPGTLVTVSS
VL: AAVLTQTPSPVSAAVGGTVSISCQASQSVYDNNYLSWFQQKPGQPPKLLIYGASTLASGVPSRFVGSGSGTQFTLTITDVQCDDAATYYCAGVYDDDSDNAFGGGTEVVVKR
B2: Ab4 (antibody, V domains shown)
VH: QEQLKESGGGLVTPGGTLTLTCTASGFSLNAYYMNWVRQAPGKGLEWIGFITLNNNVAYANWAKGRFTFSKTSTTVDLKMTSPTPEDTATYFCARSRGWGAMGRLDLWGHGTLVTVSS
VL: B1 VL with A1D, A2P, A14P, D31E, A57D, V65K, N100D
B3: Ab6 (antibody, V domains shown)
VH: QSVEESGGRLVTPGTPLTLTCTVSGIDLSDYAMSWVRQAPGKGLEWIGIIYAGSGSTWYASWAKGRFTISKTSTTVDLKITSPTTEDTATYFCARDGYDDYGDFDRLDLWGPGTLVTVSS
VL: AAVLTQTPSPVSVPVGGTVTIKCQSSQSVYNNFLSWYQQKPGQPPKLLIYQASKLASGVPDRFSGSGSGTQFTLTISGVQCDDAATYYCLGGYDDDADNAFGGGTEVVVKR
B4: Ab2 (antibody, V domains shown)
VH: QEQLKESGGRLVTPGTPLTLTCTASGFSLNDHAMGWVRQAPGKGLEYIGFINSGGSARYASWAEGRFTISRTSTTVDLKMTSLTTEDTATYFCVRGGAVWSIHSFDPWGPGTLVTVSS
VL: AYDMTQTPASVEVAVGGTVTINCQASETIYSWLSWYQQKPGQPPKLLIYQASDLASGVPSRFSGSGAGTEYTLTISGVQCDDAATYYCQQGYSGSNVDNVFGGGTEVVVKR
B5: Ab7 (antibody, V domains shown)
VH: QSLEESGGRLVTPGTPLTLTCTASGFSLSNYYMTWVRQAPGKGLEWIGMIYGSDETAYANWAIGRFTISKTSTTVDLKMTSLTAADTATYFCARDDSSDWDAKFNLWGQGTLVTVSS
VL: AYDMTQTPASVSAAVGGTVTIKCQASQSINNELSWYQQKSGQRPKLLIYRASTLASGVSSRFKGSGSGTEFTLTISDLECADAATYYCQQGYSLRNIDNAFGGGTEVVVKR

These binders were tested against Human IL-6 (human) (UniProt P05231) (assay: bio-layer interferometry (Octet QK), antibody on anti-human IgG1 Fc sensor).

binding | Binder
binds | B1
binds | B2
binds | B3
binds | B4
binds | B5
